# No constants are given. Whether binding was seen depends on the method and setting. Some binding calls cover weakened binding; strength is not graded here.
# Protein sequences, listed by entry. Tags and fused reporters are not part of them. Lines headed by an entry give the natural chain unless they say otherwise; changes in a name come on top. Chains listed by the source or under a name are the forms on record and can include a tag or linker. Residues count along the entry.
# human LHCGR (residues 27-699), wild type (P22888, residues 27-699): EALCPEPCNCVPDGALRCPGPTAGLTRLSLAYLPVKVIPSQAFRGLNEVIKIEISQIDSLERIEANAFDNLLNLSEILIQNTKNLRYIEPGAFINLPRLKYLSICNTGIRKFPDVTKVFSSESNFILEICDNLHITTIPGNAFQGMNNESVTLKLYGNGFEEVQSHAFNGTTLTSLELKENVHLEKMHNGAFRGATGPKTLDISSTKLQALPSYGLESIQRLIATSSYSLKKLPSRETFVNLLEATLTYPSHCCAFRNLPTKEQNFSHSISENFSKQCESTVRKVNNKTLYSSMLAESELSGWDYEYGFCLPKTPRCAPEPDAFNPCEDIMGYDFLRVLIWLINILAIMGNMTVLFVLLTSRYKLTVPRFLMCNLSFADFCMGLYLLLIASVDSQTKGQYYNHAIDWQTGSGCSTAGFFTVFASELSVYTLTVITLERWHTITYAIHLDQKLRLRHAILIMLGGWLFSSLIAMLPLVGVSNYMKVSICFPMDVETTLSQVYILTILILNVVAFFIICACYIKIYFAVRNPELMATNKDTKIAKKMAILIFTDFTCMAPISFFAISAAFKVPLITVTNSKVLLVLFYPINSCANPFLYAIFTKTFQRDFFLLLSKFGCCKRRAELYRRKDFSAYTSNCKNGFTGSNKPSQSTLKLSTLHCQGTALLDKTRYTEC
# human LHCGR (residues 27-699) with the constitutively active mutation S277I (P22888, form named): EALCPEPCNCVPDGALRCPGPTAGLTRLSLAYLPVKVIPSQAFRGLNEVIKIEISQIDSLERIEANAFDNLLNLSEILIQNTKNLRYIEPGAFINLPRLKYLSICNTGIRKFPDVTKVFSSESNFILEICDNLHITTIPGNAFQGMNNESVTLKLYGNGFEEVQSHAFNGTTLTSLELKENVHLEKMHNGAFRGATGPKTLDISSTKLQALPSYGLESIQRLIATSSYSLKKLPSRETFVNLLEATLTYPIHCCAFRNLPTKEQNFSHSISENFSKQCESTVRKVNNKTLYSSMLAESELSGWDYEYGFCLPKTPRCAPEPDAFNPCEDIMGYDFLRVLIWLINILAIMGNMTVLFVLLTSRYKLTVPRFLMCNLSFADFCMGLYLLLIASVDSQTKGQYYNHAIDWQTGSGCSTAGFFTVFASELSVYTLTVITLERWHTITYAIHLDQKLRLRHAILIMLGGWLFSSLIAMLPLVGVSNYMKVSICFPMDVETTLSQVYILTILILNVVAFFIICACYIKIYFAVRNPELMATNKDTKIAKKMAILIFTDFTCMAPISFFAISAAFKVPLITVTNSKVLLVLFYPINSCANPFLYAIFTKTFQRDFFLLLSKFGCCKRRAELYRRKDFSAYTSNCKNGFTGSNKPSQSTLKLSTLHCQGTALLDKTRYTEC
# UniProt P01215, residues 25-116: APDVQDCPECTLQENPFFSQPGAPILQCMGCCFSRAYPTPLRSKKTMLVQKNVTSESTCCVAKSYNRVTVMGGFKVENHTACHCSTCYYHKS
# Columns and labels:
# Assay in all cases: cryo-EM structure
# [1] = target: human LHCGR (residues 27-699) with the constitutively active mutation S277I (human) (UniProt P22888)
# CG α-subunit (human) = CG α-subunit (human) (UniProt P01215)
# [2] = target: human LHCGR (residues 27-699), wild type (human) (UniProt P22888)
substance,measurement,setting,value
CG α-subunit (from UniProt P01215 25-116),binding,[1],binds
CG β-subunit (from UniProt P0DN86 21-165),binding,[1],binds
same,binding,CG α-subunit (human),binds
human LHCGR (residues 27-699) with the constitutively active mutation S277I (from UniProt P22888 27-699) (receptor),binding,[1],no binding
"human chorionic gonadotropin (CG), native heterodimer of α- and β-subunit (from UniProt P01215;P0DN86) (complex)",binding,[1],binds
same,binding,[2],binds

# Source: doi:10.1101/2021.08.03.454894
